According to paper PMC5344305:
Results are given in words; binding and its absence hold for the method and conditions named. Binding seen in cells or lysates may run through a third protein. Some entries that bind do so weakly or less than the wild type.

Protein sequences, listed by entry. Tags and fused reporters are not part of them. Lines headed by an entry give the natural chain unless they say otherwise; changes in a name come on top.
UniProt Q93050: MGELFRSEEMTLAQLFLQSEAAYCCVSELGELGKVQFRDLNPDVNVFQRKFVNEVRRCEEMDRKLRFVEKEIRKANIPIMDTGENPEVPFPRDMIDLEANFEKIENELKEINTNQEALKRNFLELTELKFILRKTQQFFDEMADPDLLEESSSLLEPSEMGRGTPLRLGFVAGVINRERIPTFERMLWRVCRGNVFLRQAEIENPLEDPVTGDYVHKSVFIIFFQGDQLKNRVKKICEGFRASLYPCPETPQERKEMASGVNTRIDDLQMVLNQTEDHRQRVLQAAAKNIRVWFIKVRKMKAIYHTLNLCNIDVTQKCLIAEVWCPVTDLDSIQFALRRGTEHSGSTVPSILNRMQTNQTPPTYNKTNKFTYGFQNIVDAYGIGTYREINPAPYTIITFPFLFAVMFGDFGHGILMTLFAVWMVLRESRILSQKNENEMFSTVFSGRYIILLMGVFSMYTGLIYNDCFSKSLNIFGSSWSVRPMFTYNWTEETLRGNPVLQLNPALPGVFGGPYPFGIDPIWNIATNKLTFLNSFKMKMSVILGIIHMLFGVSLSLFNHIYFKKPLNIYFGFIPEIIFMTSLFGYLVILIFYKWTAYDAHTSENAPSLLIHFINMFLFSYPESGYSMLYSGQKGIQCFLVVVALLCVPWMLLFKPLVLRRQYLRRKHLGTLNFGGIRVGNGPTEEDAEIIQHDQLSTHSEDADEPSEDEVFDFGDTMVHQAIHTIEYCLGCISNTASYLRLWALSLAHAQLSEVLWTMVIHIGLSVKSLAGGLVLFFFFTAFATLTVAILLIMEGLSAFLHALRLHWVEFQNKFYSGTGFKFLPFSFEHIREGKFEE
UniProt Q9Z1G4: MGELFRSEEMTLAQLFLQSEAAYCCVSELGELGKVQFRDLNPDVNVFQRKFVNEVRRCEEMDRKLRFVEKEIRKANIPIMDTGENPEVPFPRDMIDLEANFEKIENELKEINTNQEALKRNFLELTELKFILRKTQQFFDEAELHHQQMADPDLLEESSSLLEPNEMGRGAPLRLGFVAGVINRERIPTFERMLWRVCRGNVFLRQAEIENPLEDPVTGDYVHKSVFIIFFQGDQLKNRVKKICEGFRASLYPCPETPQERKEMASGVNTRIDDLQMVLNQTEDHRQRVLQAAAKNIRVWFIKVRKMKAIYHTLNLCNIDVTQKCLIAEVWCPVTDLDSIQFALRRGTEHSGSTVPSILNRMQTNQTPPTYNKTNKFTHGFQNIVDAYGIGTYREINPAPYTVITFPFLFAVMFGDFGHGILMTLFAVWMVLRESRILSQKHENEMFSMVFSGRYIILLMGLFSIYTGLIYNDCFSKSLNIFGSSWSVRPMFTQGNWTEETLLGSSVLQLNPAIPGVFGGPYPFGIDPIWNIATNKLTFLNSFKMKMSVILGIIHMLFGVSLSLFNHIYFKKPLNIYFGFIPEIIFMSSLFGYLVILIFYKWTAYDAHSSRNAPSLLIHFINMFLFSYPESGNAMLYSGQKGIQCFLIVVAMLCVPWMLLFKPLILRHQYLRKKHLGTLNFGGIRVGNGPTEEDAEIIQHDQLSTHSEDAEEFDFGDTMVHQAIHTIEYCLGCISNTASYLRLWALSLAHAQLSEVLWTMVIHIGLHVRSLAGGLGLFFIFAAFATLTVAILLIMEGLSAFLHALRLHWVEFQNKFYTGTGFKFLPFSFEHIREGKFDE

Key:
[1] = molecular target: T1, palmitoyl-protein thioesterase-1 (PPT1) (human (endogenous in HEK-293)) (UniProt P50897); test: co-IP; HEK-293 cells transfected with tagged V0a1 constructs, lysed in RIPA buffer, diluted in PBS with 0.5% NP-40; AP-2, AP-3 or PPT1 antibody overnight at 4 °C, TrueBlot IP beads, western blot; called pull-down by the paper
T1 sequence: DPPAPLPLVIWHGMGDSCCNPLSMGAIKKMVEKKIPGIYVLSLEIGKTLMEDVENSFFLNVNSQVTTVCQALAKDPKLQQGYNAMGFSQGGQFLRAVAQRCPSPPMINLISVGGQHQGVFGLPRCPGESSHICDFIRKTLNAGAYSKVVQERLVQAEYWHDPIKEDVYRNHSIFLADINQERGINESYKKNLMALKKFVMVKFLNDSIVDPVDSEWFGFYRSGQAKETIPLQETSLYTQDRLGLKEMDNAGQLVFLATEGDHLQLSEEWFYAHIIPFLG

[2] = molecular target: T2, palmitoyl-protein thioesterase-1 (Ppt1) (mouse (endogenous in neurons)) (UniProt O88531); test: proximity ligation; Duolink PLA on fixed, permeabilised cultured primary neurons of WT and Cln1-/- mice with V0a1 antibody and AP-2, AP-3 or Ppt1 antibody; signal when antibodies are <40 nm apart
T2 sequence: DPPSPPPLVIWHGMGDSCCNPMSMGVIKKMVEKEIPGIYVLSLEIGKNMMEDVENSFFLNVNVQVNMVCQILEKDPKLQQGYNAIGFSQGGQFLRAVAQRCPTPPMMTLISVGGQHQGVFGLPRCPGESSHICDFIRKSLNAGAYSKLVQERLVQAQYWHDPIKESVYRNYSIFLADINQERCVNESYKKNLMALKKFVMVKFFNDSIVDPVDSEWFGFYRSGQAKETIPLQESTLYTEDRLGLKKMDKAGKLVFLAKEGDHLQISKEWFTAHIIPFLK

Row | Substance | binding [1] | binding [2]
1 | FLAG-tagged V0a1 C25S mutant (from UniProt Q93050 1-837) | no binding | 
2 | v-ATPase subunit a1 of the V0 sector (V0a1) (from UniProt Q9Z1G4 1-839) |  | binds
3 | FLAG-tagged V0a1 C58A mutant (from UniProt Q93050 1-837) | binds | 
4 | FLAG-tagged WT-V0a1 (from UniProt Q93050 1-837) | binds | 
